Binding screen against folded nucleic acids

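Compounds were printed on reactive glass slides in duplicate spots, a dye-labelled oligonucleotide was laid over them, and the fluorescence left after washing was read. The data file lists only calls. An earlier report of the laboratory on the PreQ1, TPP and SAM-II riboswitches (doi:10.1038/s41467-019-09493-3) used 1 µM RNA for 2 h and required a mean Z-score above 3 (spot signal-to-noise against the whole library), a score well above that on a control array, and duplicate spots agreeing (coefficient of variation under 100); it then also set aside compounds that hit other targets, which this list keeps. The cut-offs behind this list may differ. These are primary screening calls, not affinities; a compound without a hit may have attached poorly or may still bind in solution.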 A compound is marked active if it was called a hit and inactive if it was screened but was not. This is an unselected part of the compounds tested. A dash means that no call is listed here.

Oligonucleotides screened, 5′ to 3′:
T1: TPP riboswitch RNA three-way junction, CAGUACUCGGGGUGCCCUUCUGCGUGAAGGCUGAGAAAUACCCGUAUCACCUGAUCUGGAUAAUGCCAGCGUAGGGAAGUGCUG. Hit rate about 0.7% of about 24,000 compounds.
T2: SAM-II riboswitch RNA pseudoknot, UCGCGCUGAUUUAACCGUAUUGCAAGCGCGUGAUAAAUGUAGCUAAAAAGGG. Hit rate about 1% of about 21,000 compounds.
T3: PreQ1 riboswitch RNA pseudoknot, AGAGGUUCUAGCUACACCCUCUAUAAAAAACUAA. From B. subtilis. Hit rate about 0.7% of about 24,000 compounds.

Compound,T1,T2,T3
CCOc1cc(CNCc2ccncc2)ccc1OCc1ccc(Cl)cc1,inactive,inactive,inactive
CCCNc1cc(C)nc2cc(-c3ccc(OC)c(OC)c3)nn12,inactive,-,inactive
O=C(CCc1ccncc1)N1C[C@@H](CN2CCOCC2)C[C@H](CO)C1,inactive,inactive,inactive
CSCc1noc(CNC(=O)CCc2cc3n(n2)CCCNC3)n1,inactive,inactive,inactive
Cc1ccc(Cn2nnc(C(=O)Nc3ccc(C)cc3Cl)c2N)cc1,inactive,inactive,inactive
COc1cccc(CNCc2c(C(=O)O)n(C)c3cc(OC)ccc23)c1,inactive,-,inactive
CCC(C)Nc1c(N)c(=O)oc2ccccc12 (stereo not shown),inactive,inactive,inactive
COc1cc(CNCc2cccc(C(F)(F)F)c2)cc(OC)c1,inactive,inactive,inactive
CN(Cc1cccnc1)CC1(CO)CC1,inactive,inactive,inactive
N#CC1=C(N)N(c2cccc(Cl)c2)C2=C(C(=O)OC2)C12C(=O)N(Cc1ccccc1)c1ccccc12 (stereo not shown),inactive,inactive,inactive
CCOC(=O)c1ccc(Nc2ncnc3ccc(Br)cc23)cc1,inactive,inactive,inactive
COc1ccc2c(c1)c(CC(=O)O)c(C)n2C(=O)c1ccc(Cl)cc1,inactive,inactive,inactive
COC(=O)[C@@H]1N[C@H](c2c(C)nn(C)c2N2CCOCC2)[C@@H]2C(=O)N(C)C(=O)[C@@H]21,inactive,inactive,inactive
O=C(NCc1nnc2n1CCC2)C1NCCc2[nH]cnc21 (stereo not shown),inactive,inactive,inactive
CCOC(=O)c1nc(Nc2cccc(C(C)=O)c2)c2ccccc2n1,inactive,inactive,inactive
O=C(NCCO)c1nnc(Cc2ccc3c(c2)OCO3)o1,inactive,inactive,inactive
C=CCC1(CO)CCCN(C(=O)c2ccc(=O)[nH]c2)C1 (stereo not shown),inactive,inactive,inactive
CCc1ccc(Nc2cc(C)nc3nc(C)nn23)cc1,inactive,inactive,inactive
CC(C)N(CC#CCC1(O)c2ccccc2-c2ccccc21)CCO,inactive,inactive,inactive
COc1ccccc1N1CCN(CCCNc2nc3ccccc3n3c(C)nnc23)CC1,inactive,-,inactive
Cc1nnc(-c2cccc(-c3ccc(CN)nc3)c2)s1,inactive,inactive,inactive
CCC(CC)n1nc(C)cc1NC(=O)NCCNc1cccnc1,inactive,inactive,inactive
Nc1nc(SCc2ccccc2Cl)ns1,inactive,inactive,inactive
CC1(C(=O)NCC(CO)Cc2cccs2)CCNCC1 (stereo not shown),inactive,inactive,inactive
c1ccc(C2NCCc3c2[nH]c2ccccc32)cc1 (stereo not shown),inactive,inactive,inactive
Cc1ccc(-c2nc3ccc(Br)cn3c2Nc2ccc3c(c2)OCO3)o1,inactive,inactive,inactive
Cc1cccc(Nc2c(-c3ccc(C(C)C)cc3)c(=O)c2=O)c1C,inactive,-,inactive
CC1(C)NC(=O)N(CC(O)COc2ccccc2-c2ccccc2)C1=O (stereo not shown),inactive,inactive,inactive
N#CC(c1ccccc1)C(C/C(=N\O)c1ccccc1)c1ccccc1 (stereo not shown),inactive,inactive,inactive
Cc1cc(C(=O)N2CCC(O)C2)c2ccc(F)cc2n1 (stereo not shown),inactive,inactive,inactive
CN(CC(=O)NCc1ccccc1C(F)(F)F)C1CCNCC1,inactive,inactive,inactive
COC(=O)CNC(c1ccccc1)c1cc(Br)ccc1NC(=O)CCNC(=O)OCc1ccccc1 (stereo not shown),inactive,inactive,inactive
Cc1ccc(-n2nc(CO)c(C(=O)NCc3ccc(Cl)cc3)n2)cc1C,inactive,-,inactive
Cc1cc(C)n(CC(O)COc2ccccc2[N+](=O)[O-])n1 (stereo not shown),inactive,inactive,inactive
C#CCOc1ccc(Br)cc1C1C(C(=O)OC)=C(N)OC2=C1C(=O)CCC2 (stereo not shown),inactive,inactive,inactive
Clc1ccc2nc(-c3ccsc3)c(Nc3ccc4c(c3)OCO4)n2c1,inactive,inactive,inactive
CC1=C(C#N)C(C)(C)C(C#N)=C(C)N1,inactive,inactive,inactive
CCC(C)Nc1oc(-c2ccc(S(=O)(=O)N3CCCCC3)cc2)nc1C#N (stereo not shown),inactive,-,inactive
CCOC(=O)c1sc2nc(C)nc(Nc3ccccc3)c2c1C,inactive,inactive,inactive
O=C(c1ccc2sccc2c1)N1CCCN([C@H]2COC[C@@H]2O)CC1,inactive,inactive,inactive
Cc1ccc2c(c1)c1c3n2CCN(CC(O)CN2CCN(C(=O)c4ccco4)CC2)C3CCC1 (stereo not shown),inactive,inactive,inactive
CCOC(=O)N1CCN([N+]([O-])=NOc2cc(ON=[N+]([O-])N3CCN(C(=O)OCC)CC3)c([N+](=O)[O-])cc2[N+](=O)[O-])CC1,inactive,inactive,inactive
Cl.NCC(O)CNCCc1ccccc1 (stereo not shown),inactive,inactive,inactive
CCc1ccccc1NC(=O)C(=O)N1CCCC(CCN)C1 (stereo not shown),inactive,inactive,inactive
CCn1cnc2cc(N)ccc21,inactive,inactive,inactive
CCOC(=O)c1cnc2c(-c3ccc(OC)c(OC)c3)c(C)nn2c1N,inactive,inactive,inactive

The first 5 entries again:

| Compound | T1 | T2 | T3 |
|---|---|---|---|
| `CCOc1cc(CNCc2ccncc2)ccc1OCc1ccc(Cl)cc1` | inactive | inactive | inactive |
| `CCCNc1cc(C)nc2cc(-c3ccc(OC)c(OC)c3)nn12` | inactive | - | inactive |
| `O=C(CCc1ccncc1)N1C[C@@H](CN2CCOCC2)C[C@H](CO)C1` | inactive | inactive | inactive |
| `CSCc1noc(CNC(=O)CCc2cc3n(n2)CCCNC3)n1` | inactive | inactive | inactive |
| `Cc1ccc(Cn2nnc(C(=O)Nc3ccc(C)cc3Cl)c2N)cc1` | inactive | inactive | inactive |

From ROBIN, a set of small-molecule microarray screens (doi:10.1002/anie.202211358).